These are yes or no findings as the source states them, for the method shown. Some entries that bind do so weakly or less than the wild type.
biological target: Purified RAGE (UniProt Q15109); assay: competition ELISA: purified RAGE coated, competitor S100P, peptide 50 µM

The chains behind the UniProt entries cited, without tags or fusion partners. Residues count along the entry.
UniProt Q15109, residues 23-342: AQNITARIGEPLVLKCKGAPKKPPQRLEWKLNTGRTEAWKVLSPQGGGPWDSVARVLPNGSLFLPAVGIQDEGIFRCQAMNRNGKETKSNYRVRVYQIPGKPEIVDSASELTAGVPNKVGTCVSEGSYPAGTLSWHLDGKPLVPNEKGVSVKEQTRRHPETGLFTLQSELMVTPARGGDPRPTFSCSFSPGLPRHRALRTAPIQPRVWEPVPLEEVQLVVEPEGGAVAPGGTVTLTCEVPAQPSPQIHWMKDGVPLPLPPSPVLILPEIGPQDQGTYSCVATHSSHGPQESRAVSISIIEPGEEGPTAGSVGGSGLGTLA

binding, binds:
ELKVLMEKEL [Peptide of SEQ ID NO: 1 (…)]

biological target: extracellular domain of RAGE peptide (sRAGE) (UniProt Q15109); assay: competition ELISA: sRAGE coated, competitors amphoterin and S100P

binding, binds:
KLKEKYEKDI [Peptide 14 (SEQ ID NO: 18, …)]
LKEKYEKDI [Peptide 15 (SEQ ID NO: 19, …)]

biological target: extracellular domain of RAGE peptide (sRAGE) (UniProt Q15109); assay: competition ELISA: sRAGE coated, competitor amphoterin (100 ng)

binding, binds:
EAKVAMEKEL [Peptide 8 (SEQ ID NO: 12, …)]
ELKALMEKEL [Peptide 7 (SEQ ID NO: 11, …)]
ALKVLMEKEL [Peptide 4 (SEQ ID NO: 8, …)]
ELKVLMEKAL [Peptide 12 (SEQ ID NO: 16, …)]
EAKVLMEAEL [Peptide 11 (SEQ ID NO: 15, …)]
EAKVLMEKEL [Peptide 5 (SEQ ID NO: 9, …)]
EAKVLAEKEL [Peptide 9 (SEQ ID NO: 13, …)]
ELAVLMEKEL [Peptide 6 (SEQ ID NO: 10, …)]
LKVLMEKEL [Peptide 2 (SEQ ID NO: 7, …)]
ELKVLMEKEA [Peptide 13 (SEQ ID NO: 17, …)]
ELKVLMEKEL [Peptide of SEQ ID NO: 1 (…)]
EAKVLMAKEL [Peptide 10 (SEQ ID NO: 14, …)]
KLKEKYEKDI [Peptide 14 (SEQ ID NO: 18, …)]
LKEKYEKDI [Peptide 15 (SEQ ID NO: 19, …)]

biological target: extracellular domain of RAGE peptide (sRAGE) (UniProt Q15109); assay: competition ELISA: sRAGE coated, competitor S100P (100 ng)

binding, binds:
EAKVAMEKEL [Peptide 8 (SEQ ID NO: 12, …)]
ELKALMEKEL [Peptide 7 (SEQ ID NO: 11, …)]
ALKVLMEKEL [Peptide 4 (SEQ ID NO: 8, …)]
ELKVLMEKAL [Peptide 12 (SEQ ID NO: 16, …)]
EAKVLMEAEL [Peptide 11 (SEQ ID NO: 15, …)]
EAKVLMEKEL [Peptide 5 (SEQ ID NO: 9, …)]
EAKVLAEKEL [Peptide 9 (SEQ ID NO: 13, …)]
ELAVLMEKEL [Peptide 6 (SEQ ID NO: 10, …)]
LKVLMEKEL [Peptide 2 (SEQ ID NO: 7, …)]
ELKVLMEKEA [Peptide 13 (SEQ ID NO: 17, …)]
ELKVLMEKEL [Peptide of SEQ ID NO: 1 (…)]
EAKVLMAKEL [Peptide 10 (SEQ ID NO: 14, …)]
KLKEKYEKDI [Peptide 14 (SEQ ID NO: 18, …)]
LKEKYEKDI [Peptide 15 (SEQ ID NO: 19, …)]

Reference: patent publication US20100249038A1, “ANTAGONISTS OF THE RECEPTOR FOR ADVANCED GLYCATION END-PRODUCTS (RAGE)” (Board of Regents, University of Texas System, priority 2007, published 2010)
